# Test results reported in the supplement of paper PMC11438910.
# This is one part of the list. The signal is at background level for most entries.
# Experiments:
# Test in all cases: fluorescence intensity of antibody binding to polysaccharide-coupled beads; higher = stronger binding
# [1] = molecular target: pneumococcal polysaccharide Pn19B
# Protocol: (§1)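 Recombinant rhesus-murine chimeric IgG1 antibodies were tested against antigen-coupled MagPlex beads in a 96-plex Luminex direct immunoassay (dLIA). The beads carried pneumococcal capsular polysaccharides of 93 serotypes plus C-polysaccharides. Antibody was added at 0.1–12,500 ng/mL for 1 h, then PE anti-mouse IgG, and net MFI was read on a Bio-Plex 3D. Only the rhesus variable regions are printed; constant regions are murine IgG1/kappa/lambda, and the signal peptide is MGWSCIILFLVATATGVHS.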
# [2] = molecular target: pneumococcal polysaccharide Pn19C
# Protocol: as §1
# [3] = molecular target: pneumococcal polysaccharide Pn19F
# Protocol: as §1
# [4] = molecular target: pneumococcal polysaccharide Pn2
# Protocol: as §1
# [5] = molecular target: pneumococcal polysaccharide Pn20A
# Protocol: as §1
# [6] = molecular target: pneumococcal polysaccharide Pn20B
# Protocol: as §1
# [7] = molecular target: pneumococcal polysaccharide Pn21
# Protocol: as §1
# [8] = molecular target: pneumococcal polysaccharide Pn22A
# Protocol: as §1
# [9] = molecular target: pneumococcal polysaccharide Pn22F
# Protocol: as §1
# [10] = molecular target: pneumococcal polysaccharide Pn23A
# Protocol: as §1
# [11] = molecular target: pneumococcal polysaccharide Pn23B
# Protocol: as §1
# [12] = molecular target: pneumococcal polysaccharide Pn23F
# Protocol: as §1
# [13] = antibody concentration 0.1 ng/mL
# [14] = antibody concentration 0.534724 ng/mL
# [15] = antibody concentration 2.8593 ng/mL
# [16] = antibody concentration 15.2894 ng/mL
# [17] = antibody concentration 81.7561 ng/mL
# [18] = antibody concentration 437.17 ng/mL
# [19] = antibody concentration 2337.65 ng/mL
# [20] = antibody concentration 12500 ng/mL
binder,measurement,setting,value
4-99.4 (protein) chain 1: QVQLQESGPGLVKPSETLSLTCAVSGYSISSAYFWGWIRQPPGKGLEYIGYISGEGGKSYYNPSLMSRVTISKDTSKNQFSLKLNTVTAADTAVYYCARRAILVGFDLWGQGVLVTVSS chain 2: QAAPTQPPSVSGSPGQSVTISCTGSNSDIGYYNAVSWYQQHPGKAPKLMIYEVSKRPSGVSDRLTGSKSGNTASLTISGLQAEDEADYYCSSYAGSNTYIFGTGTRLTVL,fluorescence intensity,[1]; [13],28 MFI
same,fluorescence intensity,[1]; [14],31 MFI
same,fluorescence intensity,[1]; [15],29.5 MFI
same,fluorescence intensity,[1]; [16],28.5 MFI
same,fluorescence intensity,[1]; [17],29 MFI
same,fluorescence intensity,[1]; [18],30 MFI
same,fluorescence intensity,[1]; [19],35.5 MFI
same,fluorescence intensity,[1]; [20],118 MFI
same,fluorescence intensity,[2]; [13],28.5 MFI
same,fluorescence intensity,[2]; [14],26.5 MFI
same,fluorescence intensity,[2]; [15],23.5 MFI
same,fluorescence intensity,[2]; [16],25 MFI
same,fluorescence intensity,[2]; [17],25.5 MFI
same,fluorescence intensity,[2]; [18],26.5 MFI
same,fluorescence intensity,[2]; [19],31.5 MFI
same,fluorescence intensity,[2]; [20],77.2 MFI
same,fluorescence intensity,[3]; [13],27 MFI
same,fluorescence intensity,[3]; [14],26 MFI
same,fluorescence intensity,[3]; [15],26.5 MFI
same,fluorescence intensity,[3]; [16],27 MFI
same,fluorescence intensity,[3]; [17],27.5 MFI
same,fluorescence intensity,[3]; [18],27.2 MFI
same,fluorescence intensity,[3]; [19],30.5 MFI
same,fluorescence intensity,[3]; [20],48.5 MFI
same,fluorescence intensity,[4]; [13],20.5 MFI
same,fluorescence intensity,[4]; [14],21.5 MFI
same,fluorescence intensity,[4]; [15],20.8 MFI
same,fluorescence intensity,[4]; [16],18.5 MFI
same,fluorescence intensity,[4]; [17],19.5 MFI
same,fluorescence intensity,[4]; [18],22 MFI
same,fluorescence intensity,[4]; [19],24.5 MFI
same,fluorescence intensity,[4]; [20],32 MFI
same,fluorescence intensity,[5]; [13],24.5 MFI
same,fluorescence intensity,[5]; [14],23.5 MFI
same,fluorescence intensity,[5]; [15],22.8 MFI
same,fluorescence intensity,[5]; [16],22.5 MFI
same,fluorescence intensity,[5]; [17],22.5 MFI
same,fluorescence intensity,[5]; [18],23 MFI
same,fluorescence intensity,[5]; [19],27.8 MFI
same,fluorescence intensity,[5]; [20],75 MFI
same,fluorescence intensity,[6]; [13],24.5 MFI
same,fluorescence intensity,[6]; [14],25 MFI
same,fluorescence intensity,[6]; [15],22.5 MFI
same,fluorescence intensity,[6]; [16],22.5 MFI
same,fluorescence intensity,[6]; [17],24 MFI
same,fluorescence intensity,[6]; [18],23.8 MFI
same,fluorescence intensity,[6]; [19],25.5 MFI
same,fluorescence intensity,[6]; [20],35.5 MFI
same,fluorescence intensity,[7]; [13],19 MFI
same,fluorescence intensity,[7]; [14],20.8 MFI
same,fluorescence intensity,[7]; [15],20.5 MFI
same,fluorescence intensity,[7]; [16],18.8 MFI
same,fluorescence intensity,[7]; [17],20.5 MFI
same,fluorescence intensity,[7]; [18],19.5 MFI
same,fluorescence intensity,[7]; [19],19.8 MFI
same,fluorescence intensity,[7]; [20],26.5 MFI
same,fluorescence intensity,[8]; [13],22.8 MFI
same,fluorescence intensity,[8]; [14],22.8 MFI
same,fluorescence intensity,[8]; [15],21 MFI
same,fluorescence intensity,[8]; [16],21.2 MFI
same,fluorescence intensity,[8]; [17],22 MFI
same,fluorescence intensity,[8]; [18],21.8 MFI
same,fluorescence intensity,[8]; [19],22.5 MFI
same,fluorescence intensity,[8]; [20],39.5 MFI
same,fluorescence intensity,[9]; [13],29.5 MFI
same,fluorescence intensity,[9]; [14],30.8 MFI
same,fluorescence intensity,[9]; [15],31.5 MFI
same,fluorescence intensity,[9]; [16],30.8 MFI
same,fluorescence intensity,[9]; [17],31.2 MFI
same,fluorescence intensity,[9]; [18],33.2 MFI
same,fluorescence intensity,[9]; [19],32.2 MFI
same,fluorescence intensity,[9]; [20],41.5 MFI
same,fluorescence intensity,[10]; [13],26 MFI
same,fluorescence intensity,[10]; [14],28.8 MFI
same,fluorescence intensity,[10]; [15],27.5 MFI
same,fluorescence intensity,[10]; [16],24.5 MFI
same,fluorescence intensity,[10]; [17],29.5 MFI
same,fluorescence intensity,[10]; [18],31.8 MFI
same,fluorescence intensity,[10]; [19],40.8 MFI
same,fluorescence intensity,[10]; [20],88.5 MFI
same,fluorescence intensity,[11]; [13],31.2 MFI
same,fluorescence intensity,[11]; [14],32 MFI
same,fluorescence intensity,[11]; [15],30.5 MFI
same,fluorescence intensity,[11]; [16],31 MFI
same,fluorescence intensity,[11]; [17],31 MFI
same,fluorescence intensity,[11]; [18],32 MFI
same,fluorescence intensity,[11]; [19],32.8 MFI
same,fluorescence intensity,[11]; [20],38.2 MFI
same,fluorescence intensity,[12]; [13],17 MFI
same,fluorescence intensity,[12]; [14],19 MFI

# Seven entries drawn at random from the list so far:
binder,measurement,setting,value
4-99.4 (protein) chain 1: QVQLQESGPGLVKPSETLSLTCAVSGYSISSAYFWGWIRQPPGKGLEYIGYISGEGGKSYYNPSLMSRVTISKDTSKNQFSLKLNTVTAADTAVYYCARRAILVGFDLWGQGVLVTVSS chain 2: QAAPTQPPSVSGSPGQSVTISCTGSNSDIGYYNAVSWYQQHPGKAPKLMIYEVSKRPSGVSDRLTGSKSGNTASLTISGLQAEDEADYYCSSYAGSNTYIFGTGTRLTVL,fluorescence intensity,[7]; [15],20.5 MFI
same,fluorescence intensity,[4]; [15],20.8 MFI
same,fluorescence intensity,[8]; [17],22 MFI
same,fluorescence intensity,[4]; [19],24.5 MFI
same,fluorescence intensity,[8]; [14],22.8 MFI
same,fluorescence intensity,[11]; [20],38.2 MFI
same,fluorescence intensity,[2]; [17],25.5 MFI
